PubChem BioAssay AID1259405 – NCATS – 2018
Screen: 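Silenced genes that increase secreted GFP made by CHO cells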 (primary screen). Cells: Chinese hamster CHO-K1 ovary cells with stable secreted eGFP expression. Knock-down reagent: single siRNA against mouse genes, 0.8 pmol siRNA per well (2 µl of 400 nM stock). Time to read-out: 3 days. Read-out: 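Per-well intracellular GFP measured by laser scanning cytometry, plus viability from ATP luminescence, each relative to plate median of non-targeting control wells, in %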. Reading the numbers: GFP, % of control: higher = more GFP per well, higher productivity; viability (ATP), % of control: higher = more viable cells (more ATP). Hit rule: 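a knock-down is called active if GFP reaches 120% or more of non-targeting control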.
This is one part, drawn at random, of about 50,000 reagents tested. About 4,000 of them (8%) were called active. 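Mouse siRNA library applied to hamster cells; one well for each siRNA.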 A number with no mark means an inactive call. Reagents against one gene are numbered here. No sequences are given here.

Hs6st2 (heparan sulfate 6-O-sulfotransferase 2) #1 — GFP, % of control = 115; viability (ATP), % of control = 80.7
Hs6st2 (heparan sulfate 6-O-sulfotransferase 2) #2 — GFP, % of control = 79.8; viability (ATP), % of control = 68.7
Hs6st2 (heparan sulfate 6-O-sulfotransferase 2) #3 — GFP, % of control = 109; viability (ATP), % of control = 116
Tmem106a (transmembrane protein 106A) #1 — GFP, % of control = 40.9; viability (ATP), % of control = 36.7
Tmem106a (transmembrane protein 106A) #2 — GFP, % of control = 97.3; viability (ATP), % of control = 76.3
Tmem106a (transmembrane protein 106A) #3 — GFP, % of control = 126 (active); viability (ATP), % of control = 114
Dusp2 (dual specificity phosphatase 2) #1 — GFP, % of control = 69; viability (ATP), % of control = 72.6
Dusp2 (dual specificity phosphatase 2) #2 — GFP, % of control = 71.6; viability (ATP), % of control = 68
Or10a4 (olfactory receptor family 10 subfamily A member 4) #1 — GFP, % of control = 91; viability (ATP), % of control = 74.8
Or10a4 (olfactory receptor family 10 subfamily A member 4) #2 — GFP, % of control = 61.8; viability (ATP), % of control = 66.5
Or10a4 (olfactory receptor family 10 subfamily A member 4) #3 — GFP, % of control = 43.9; viability (ATP), % of control = 20.5
Fhl2 (four and a half LIM domains 2) #1 — GFP, % of control = 40.4; viability (ATP), % of control = 34.4
Fhl2 (four and a half LIM domains 2) #2 — GFP, % of control = 77.3; viability (ATP), % of control = 57.8
Fhl2 (four and a half LIM domains 2) #3 — GFP, % of control = 78.4; viability (ATP), % of control = 91.2
Bhlhe41 (basic helix-loop-helix family, member e41) #1 — GFP, % of control = 87.6; viability (ATP), % of control = 67.3
Bhlhe41 (basic helix-loop-helix family, member e41) #2 — GFP, % of control = 65.6; viability (ATP), % of control = 56.3
